Measured values published in paper PMC6018924, “Brassinosteroids regulate pavement cell growth by mediating BIN2-induced microtubule stabilization” (Journal of Experimental Botany, 2018).
Changes are numbered by the printed parent chain. No constants are given. Whether binding was seen depends on the method and setting. Binding seen in cells or lysates may run through a third protein. Some results given as binding are weak or reduced against the parent protein; the word gives no strength. Sequences can lack the tags named with a protein.

Protein sequences, listed by entry. Tags and fused reporters are not part of them.
UniProt P29511: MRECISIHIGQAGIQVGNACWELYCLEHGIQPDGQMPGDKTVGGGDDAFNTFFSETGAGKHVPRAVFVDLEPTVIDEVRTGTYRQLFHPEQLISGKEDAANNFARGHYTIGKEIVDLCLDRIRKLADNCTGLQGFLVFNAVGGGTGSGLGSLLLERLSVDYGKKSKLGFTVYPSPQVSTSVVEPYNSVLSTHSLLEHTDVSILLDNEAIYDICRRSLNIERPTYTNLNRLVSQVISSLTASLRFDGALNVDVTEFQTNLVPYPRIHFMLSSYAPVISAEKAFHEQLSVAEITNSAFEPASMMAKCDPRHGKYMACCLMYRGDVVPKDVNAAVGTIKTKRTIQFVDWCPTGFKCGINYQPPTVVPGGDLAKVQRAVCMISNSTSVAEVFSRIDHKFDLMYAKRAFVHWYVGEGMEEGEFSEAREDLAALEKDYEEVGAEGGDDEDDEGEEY

Legend:
[1] = target: T1, GST–BIN2 (BRASSINOSTEROID …2) (Arabidopsis) (UniProt Q39011); test: pull-down; semi-in vivo: GST fusions immobilized on glutathione resin; supernatant of total protein extract of plants overexpressing TUA6-GFP incubated with the beads 1 h at 4 °C; western blot with anti-α-tubulin antibody; only the target purified
T1 sequence: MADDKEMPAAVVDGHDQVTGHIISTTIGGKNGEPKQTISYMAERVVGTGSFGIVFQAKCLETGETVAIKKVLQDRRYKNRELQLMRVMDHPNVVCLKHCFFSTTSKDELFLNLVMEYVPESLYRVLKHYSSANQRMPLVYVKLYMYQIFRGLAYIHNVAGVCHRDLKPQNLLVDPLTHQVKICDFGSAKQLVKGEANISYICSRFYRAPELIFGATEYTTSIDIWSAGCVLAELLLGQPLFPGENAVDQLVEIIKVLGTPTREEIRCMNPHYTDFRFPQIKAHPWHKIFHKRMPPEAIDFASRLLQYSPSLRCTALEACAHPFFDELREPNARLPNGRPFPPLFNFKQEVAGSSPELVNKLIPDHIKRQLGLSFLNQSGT

[2] = target: T2, GST–BIN2^K69R (kinase-dead form of BIN2) (Arabidopsis) (UniProt Q39011); test: as above
T2 sequence: T1 sequence with K69R

Substance: TUA6-GFP (from UniProt P29511 1-450)
- binding [1]: binds
- binding [2]: binds
